# Test results: publication PMC6321534
# Amino acid sequences for entries named in this document (tags omitted). A change or cut given only in a name is not applied to a line headed by its entry.
# UniProt C4M6P6: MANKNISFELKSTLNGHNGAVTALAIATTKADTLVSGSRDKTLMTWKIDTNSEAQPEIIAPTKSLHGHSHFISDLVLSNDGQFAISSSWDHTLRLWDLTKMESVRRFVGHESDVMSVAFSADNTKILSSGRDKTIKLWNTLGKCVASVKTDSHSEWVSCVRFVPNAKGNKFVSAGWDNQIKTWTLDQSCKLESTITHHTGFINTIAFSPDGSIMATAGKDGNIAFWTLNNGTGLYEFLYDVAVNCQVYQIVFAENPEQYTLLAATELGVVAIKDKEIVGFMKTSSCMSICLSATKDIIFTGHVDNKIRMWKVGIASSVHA
# UniProt C4LTS8: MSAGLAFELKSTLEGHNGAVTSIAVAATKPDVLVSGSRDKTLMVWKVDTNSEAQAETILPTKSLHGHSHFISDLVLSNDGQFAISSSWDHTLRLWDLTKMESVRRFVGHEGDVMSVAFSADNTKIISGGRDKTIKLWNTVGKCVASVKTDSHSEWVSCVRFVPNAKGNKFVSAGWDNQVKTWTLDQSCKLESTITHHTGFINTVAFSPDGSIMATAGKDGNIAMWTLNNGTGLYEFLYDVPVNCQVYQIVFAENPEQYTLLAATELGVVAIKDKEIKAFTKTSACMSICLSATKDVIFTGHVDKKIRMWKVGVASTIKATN
# Results are given in words; binding and its absence hold for the method and conditions named. Binding seen in cells or lysates may run through a third protein. A yes stands for co-enrichment or nearness to the bait. Other partners may have been found. Sequences can lack the tags named with a protein.
# T1: N-terminal Myc-tagged EhRab8A (3Myc-EhRab8A) (E. histolytica)
# T1 sequence: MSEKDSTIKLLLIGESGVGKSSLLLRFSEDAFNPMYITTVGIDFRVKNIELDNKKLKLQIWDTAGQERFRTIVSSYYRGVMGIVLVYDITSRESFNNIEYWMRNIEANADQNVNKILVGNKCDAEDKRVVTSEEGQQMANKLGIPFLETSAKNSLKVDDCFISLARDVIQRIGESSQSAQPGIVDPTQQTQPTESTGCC
# B1: EhCdc50 (EHI_142740), endogenous (protein, UniProt C4M6E4 1-316)
# chain: MSEKVKGLVSKTFSTSFKQQEMKSCVPLYRPLTVILFFLITGIIFIPIGIAVFVVTNNCQEYSVKYVGEGSALTCKQGATCEFQFNIPKPMKTPVYVYYQLTNFYQNHREYLRSRSNKQLKGDPISTYSQLSDCTPLISLNNSKNPHMFYEPCGLVAASFFNDSFEITMQPEKESSSVLLELNKENINWKSDKKLFGEPAERNGIKVVNSYTDPDFINWMRPAVSSTFRKLTGIIENVEEVKGNVTVKVVNNFPVESFKGTKTIILATTSVFGSKNPALGIIYMATGGVFVIIAILLFILTRVSPRKFADKRFLRW
# B2: MIT domain protein (EHI_093860) (protein, UniProt C4LYH7 1-671)
# chain: MSLDKAITVAEEAINFDNLEDDYNAISKYKEAVEYLKLAHSDPSNAESYSVILNKIMEYNERIEYLAELHPGDTKFEELVKAPVVLDQPLSNNIPTQAQVLEEPKPIIIQPIEQSKPIEQSKPIEQSKPIEQSKPIEQSKPIEQSKPQNVEPILNQQQEKPQNVEPILNHQQEKPQEIIKPLFPEPSQPIEEKKDSTVIEQGEEQQNKSKVLVGAVKVMPTTDISQQPTNSKVNQPEERQVQPTFNIVQSTPMPTTGMVPVMMPTTQPVINPMMTSVNGYLPVITPQGPMLMPTTQPPSLQQPVFPHFGTEPNSSLIGGPIIPITSAPIQSVQEQKPKIPKQSTTALRTAFIRSKLSLEHPSTLNGLKAWKLAKPLAEKGKEFDSQTKYADALAYYETALDYFAQALRAPELTDNMKKQLKEEVKAYLTRAEQIKPVVVEFLKQNPTYFGEVDNEDSQRLETCIVCNKRIEGEFVSALGYNYHPQCFVANVNCKLCGKPFTFPKMEFKIYNDQAYHPLCFEGVTGLEKEITYTPTFQHGTIFYKVKLPKKIFNVNDSFMYDITIDNSTNCCINYIETGLLCEETRFSRGFSGEMKGETTKTEMAKKKIMFEGKVMRNGVITKSEMFSIGMVRPSHHNDIMFYRGYKFVVSLKVSGVALGPKEIVFPIYINE
# B3: Nuclear pore protein (EHI_118780) (protein, UniProt C4LYM6 1-341)
# chain: MSKQQSNSPVFPLGEPKTFQDTISGIEGYSSQNGILVGVSSWDKTCKAFLVNSPTQTQIVGSVNCNSPLTSICKFCKFCESQFLVGSLNGGVYLWNVQQNSLQQVGQFNDCITSMKPFPETNSIVISSLDGSLGLLDLNSGNISKMPVNNKIICMDAKYPYITFHTPNKVEVFNIQSGKLMTDTLIGGQQSTVNSSVQCIAVFPDRKGIVYGGADGRANVLHFENKSNQYTYAFKAQHKKISTTQTYYYPVNSISFYNETIFLTAGSDGVINIWDKNKKSLVNTLTSPIQNCPITTADFICENKFLAYSVGYDWHQGVEGLLQQQVSVPVIKVVDDPLVRL
# B4: Translation initiation factor (EHI_180410) (protein, UniProt C4M290 1-286)
# chain: MATINFNIHYITYFGQDLYVCFNDSECVPMNWTNGHMWVGKKTINGPTHLEWYYLVKVHNKIQRIEEVHGLREYNFNGNSASVRDWWYYPELTYVTDTSDEQGVINKQGLDEKTLKAKKEAEEKAKKEAEEKAKKEAEEKAKKEAEEKAKKEAEEKAKKEAEEKAKKEAEEKAKKEAEEKAKKEAEEKARKEKSEKEKQERLKQLPSLDESVGFYPVQRSKGSPSSSDRSSERSSERNESNRLKRSSQIQEQIRKYEELAKSSQEDAQKSIRHTSSSKRVSKTFGK
# B5: Lysophospholipid acyltransferase 1 (EHI_086180) (protein, UniProt C4M373 1-487)
# chain: MLDSFVTTSAQLIGFPEDVFRFLFAFIVEVPISIICRYIPLSTDMKYLIYGIIGIFISFFVYSTMTYCVLITMIPVYLIMKYVPTRKGAYACFGISLGYLLTIHIKRMIDNYLGYDLDFSSVQMVLTIKFTTFAFSVCNAQDKEYKCSEHTEKHNIYNYPSILQFFGYTFFFPAFFSGPSMEYTDFVSFIDMSMFKEFNNKLPPINMKAVGTVTLRLILIIVFHLVSIKCSIFEFCEYYILGHKEESTCWFKLLMILLYVEFIKLRYYFVWEFGELLSILMGFGYSGMKDGETTWEGFKNVDIWKMETSDSVRQIVSNWNIQTERWLRYYVYERLNQNKTLAPYKSLLTNMVSAFWHGLYPGYYIAFGTMTLQQKFQYMLYTQVLPLLRNKYGEKSIPIYLYHTFNYIYTPFAQMYCFVSFVLLSFSATFTVYSYTYFIPHIIALSGWMYLSYFPVYKKPSRQETVETKPKEVSTGSPATKETTKSE
# B6: EhCP-C6 (EHI_127030) (protein, UniProt C4LWX8 1-503)
# chain: METVTTDIIRNGTQQVVNVINQHTSSHSKPIKSSFVLSNLPPVKFQGKRSTCWVFSTIFQLEYAYNKDLSNKYISLNEQAYAIDAVEACKADDYKGCPKKRFDYSTNTGYPQFLWRYSSLSNKVLPESICEYQTNKDNEWKCDGKEQAQKTNALKFDVKSIATFRTIEELKEAVKQGPVSLVLVLVQGQYIIQVDNKDNILGKIPGAEIKECPENSNLCVYIPSERITNDGEYIIPERANNRYGYHVVTIVGYNDNYITKDNTCGAFIIRDSTDDTLVYGSHSYQYLKGEHSEWDERTLCANVYNPLGWDSCVYMNPGPTGDSKVVKYDLKATCLNEKYIKENVLNTRKPTEFKCINSDFCDTTKRYFISSTSRSQHSSYLFTITFLEVNPNNTDEQKEITFTDFPLDSYNKFIQPIDSQIELIQTNTTFCGYRSLPYIVLDKISMAKTQDSYYGVQFNIEWDKQSYPNNGEFDYSQILKSIHEFPEYKGFLGPEPYQVRYED
# Molecular target: T1, N-terminal Myc-tagged EhRab8A (3Myc-EhRab8A) (E. histolytica)
# Assay: affinity purification with mass spectrometry; cells cross-linked with 2 mM DSP, p13 fraction in 2% digitonin; Myc-EhRab8A precipitated with anti-Myc agarose at 4 °C, washed with 0.5% digitonin, eluted with Myc peptide; 35 and 40 kDa bands of the silver-stained gel analysed by LC-MS/MS; mock cells as control
row,Molecule,binding
1,Guanine nucleotide-binding Ribosomal protein (EHI_171280) (from UniProt C4M6P6),binds
2,Guanine nucleotide-binding Ribosomal protein (EHI_050550) (from UniProt C4LTS8),binds

# Molecular target: T1, N-terminal Myc-tagged EhRab8A (3Myc-EhRab8A) (E. histolytica)
# Assay: as above
# Remark: another data set of the same source
row,Molecule,binding
1,B1,binds
2,B2,binds
3,B3,binds
4,B4,binds
5,B5,binds
6,B6,binds
